Experimental data: PubChem BioAssay AID540276 (National Center for Advancing Translational Sciences (NCATS), 2011)
“And” between values parts separate entries of the source, which are not always exact repeats. Identical values can stand only once. In all, about 300,000 compounds went through this assay and about 5,400 (1.8%) were called active. Inconclusive means that the source gave no clear call. Such entries were picked first, then a sample of the others. Calls follow the shape of the full dose curve; tested in HEK293 cells. Potencies of inconclusive entries are doubtful fits and often do not repeat.

Assay: qHTS for inhibitors of binding or entry into cells for Marburg Virus
Conditions: Marburg virus pseudotyped entry inhibition, cell reporter; series mostly up to 37.8 µM
Potency is read from the fitted curve at half-maximal effect.

| SMILES | Potency |
| --- | --- |
| CC1Cc2nc(SCC(=O)Nc3ccc(F)cc3)n(C)c(=O)c2S1 (stereo not drawn) | inactive |
| COc1ccc(-n2cnc(=S)[nH]c2=S)cc1 | inconclusive: 3.55 µM [activator, single point] |
| COc1cc(C(=O)CSc2nnc(-c3ccc(O)cc3)n2CC2CCCO2)ccc1NC(C)=O (stereo not drawn) | inconclusive: 20.6 µM [activator, partial curve, poor fit] |
| CC(=O)Nc1ccc(C)cc1-c1nc2ccccc2n(CC(=O)Nc2cc(Cl)ccc2C)c1=O | inactive |
| COc1ccc(S(=O)(=O)N2CCCN(Cc3cccc(F)c3)CC2)cc1 | inconclusive: 3.98 µM [inhibitor, single point] |
| CC(Cc1ccccc1)N1CCCC1=O (stereo not drawn) | inconclusive: 31.6 µM [activator, partial curve, poor fit] |
| CCOc1ccc(OCCSc2nnnn2-c2ccccc2)cc1 | inconclusive: 11.2 µM [activator, partial curve, poor fit] |
| Cc1cccc(NS(=O)(=O)c2ccc(C(=O)NCC(c3ccco3)N3CCCCC3)cc2)c1C (stereo not drawn) | inconclusive: 5.62 µM [inhibitor, full curve, poor fit] |
| CN1C(=O)C(CC(=O)Nc2ccc(F)cc2)N(CCCc2ccccc2)C1=S (stereo not drawn) | active: 11.2 µM |
| Cc1onc(-c2ccccc2Cl)c1C(=O)N1CCN(C/C=C/c2ccccc2)CC1 | inactive |
| COC(=O)Cc1ccc(NC(=S)N2CCN(c3cc(Cl)ccc3C)CC2)cc1 | inconclusive: 2.82 µM [inhibitor, full curve, poor fit] |
| O=C(NC1=NCCS1)Nc1ccccc1 | inconclusive: 0.517 µM [activator, partial curve, poor fit] |
| Cc1ccc(-n2c(C)cc(/C=N/NC(=O)c3ccc(CN4CCOCC4)cc3)c2C)cc1 | inactive |
| O=C(c1ccccc1SCc1ccccc1)N1CCCCCC1 | inconclusive: 35.5 µM [inhibitor, single point] |
| Cc1cc(-c2csc(N)n2)c(C)n1Cc1ccco1 | inconclusive: 16.4 µM [inhibitor, partial curve, poor fit] |
| CCCCOc1ccc2c(c1)C(=O)c1cc(O)ccc1-2 | inconclusive: 11.2 µM [inhibitor, partial curve, poor fit] |
| N#CC1(c2ccc(NC(=O)c3ccccc3F)cc2)CCCC1 | inconclusive: 7.08 µM [inhibitor, partial curve, poor fit] |
| Cc1nnc2c(Nc3cccc(O)c3)nc3ccccc3n12 | inactive |
| Nc1nccnc1C(=O)OCC(=O)C12CC3CC(CC(C3)C1)C2 | inactive |
| CC(Oc1nc2c(c(=O)n(C)c(=O)n2C)n1C)C1CCCCC1 (stereo not drawn) | inconclusive: 6.31 µM [inhibitor, single point] |
| Cc1nc(SCC(=O)NCCN2C(=O)CSC2=O)nc(C)c1C | inconclusive: 12.6 µM [inhibitor, partial curve, poor fit] |
| CCn1c(=O)c(=O)n(CC)c2cc(N3CCCCC3)c(NC(=O)c3cccc(F)c3)cc21 | inconclusive: 5.62 µM [inhibitor, single point] |
| COc1ccc(/C=N/Nc2ncnc3scc(-c4ccccc4)c23)cc1OC | inconclusive: 23.1 µM [inhibitor, single point] |

| SMILES | Potency |
| --- | --- |
| COc1ccc(C(=O)COC(=O)c2c(-c3ccccc3)noc2C)c(OC)c1 | inconclusive: 14.1 µM [inhibitor, single point] |
| Cc1ccc2c(c1)C1CN(C)CCC1N2C(=O)Nc1cccc(Cl)c1 (stereo not drawn) | inconclusive: 29.1 µM [inhibitor, single point] |
| Cc1ccc(OCC(=O)N2N=C(C(F)(F)F)CC2(O)C(C)(C)C)cc1C (stereo not drawn) | inconclusive: 3.66 µM [inhibitor, full curve, poor fit] |
| CC1(C)CC(C)(c2ccc(O)cc2O)N(c2cccc(Cl)c2)C(=S)N1 (stereo not drawn) | inactive |
| Cc1ccc(S(=O)(=O)NCC(=O)N(c2ccccc2)C(C(=O)NCc2ccccc2)c2ccco2)cc1 (stereo not drawn) | active: 20 µM |
| S=c1[nH]c2cc(Cl)c3cccnc3c2o1 | inactive |
| CCCCOCC1CC(CC#CCN2CCCCC2)C(=O)O1 (stereo not drawn) | inconclusive: 35.5 µM [inhibitor, single point] |
| COc1ccc(C)cc1NS(=O)(=O)c1ccc2c(c1)n(C)c(=O)n2C | inconclusive: 1 µM [inhibitor, full curve, poor fit] |
| COc1ccc(/C=N/NC(=O)c2ccc(NC(=O)c3cccc([N+](=O)[O-])c3)cc2)c(OC)c1 | inconclusive: 22.4 µM [inhibitor, partial curve, poor fit] |
| CCNc1nc(NCc2ccccc2)nc(SCC(=O)Nc2ccccc2)n1 | inconclusive: 12.6 µM [inhibitor, partial curve, poor fit] |
| NC(Cc1ccc(N(CCCl)CCCl)cc1)C(=O)O (stereo not drawn) | active: 5.8 µM and active: 3.16 µM |
| COc1ccc(C(=O)NCC2(N3CCN(C)CC3)CCCCC2)cc1 | inactive |
| COc1cc(/C=C(/C(=O)O)c2ccc(-c3ccccc3)cc2)cc(OC)c1OC | inconclusive: 7.94 µM [inhibitor, partial curve, poor fit] |
| O=C(CC1Sc2ccccc2NC1=O)NNc1ccc(Cl)cc1Cl (stereo not drawn) | inconclusive: 12.6 µM [inhibitor, single point] |
| C/C(=N\NC(=O)c1ccccc1)c1ccc(N2CCOCC2)cc1 | inactive |
| O=C(c1cc(COc2ccc(F)cc2F)on1)N1CCSCC1 | inconclusive: 7.08 µM [activator, partial curve, poor fit] |
| Cc1ccc(NC(=O)CN2C(=O)N/C(=C/c3ccc(C)o3)C2=O)cc1 | inactive |
| COc1ccc(CCn2c(O)c(C=NCc3ccc4c(c3)OCO4)c(=O)[nH]c2=O)cc1OC | inactive |
| CCC(C)NC(=O)c1ccc2c(=O)n3c(nc2c1)CCCCC3 (stereo not drawn) | inactive |
| CCCC(NC(=O)c1c(C)noc1C)C12CC3CC(CC(C3)C1)C2 (stereo not drawn) | inconclusive: 3.98 µM [inhibitor, full curve, poor fit] |
| COc1cc(CNC(C)(C)CO)ccc1OCC(=O)NC(C)(C)C | inconclusive: 1.41 µM [inhibitor, full curve, poor fit] |
| CCC(=O)N1CCN(c2nc(CC)nc3sc4c(c23)CCCC4)CC1 | inactive |
| CN(C)C(=O)CCc1nc2sc3c(c2c(=O)[nH]1)CCCC3 | inconclusive: 3.55 µM [inhibitor, partial curve, poor fit] |

| SMILES | Potency |
| --- | --- |
| CCCCCCCCC(=O)N/N=C(\C)c1ccco1 | inactive |
| O=C(c1ccccc1)N1CC(COc2ccccc2)OC(c2cccnc2)O1 (stereo not drawn) | inconclusive: 35.5 µM [activator, partial curve, poor fit] |
| Cc1ccc(NC(=O)c2oc3ccc(S(=O)(=O)N4CCC5(CC4)OCCO5)cc3c2C)cc1C | inconclusive: 20 µM [inhibitor, single point] |
| Cc1cc(C)c(NC(=O)COC(=O)c2cccc3c2C(=O)c2ccccc2C3=O)c(C)c1 | inconclusive: 14.1 µM [inhibitor, single point] |
| COCCNC(=O)CCn1c(=O)c2cc(OC)c(OC)cc2n(CC(=O)Nc2ccc(Cl)cc2F)c1=O | inactive |
| Cc1cccc(C(=O)NNC(=O)C23CC4CC(CC(C4)C2)C3)c1O | inactive |
| Cc1cc(C)cc(Nc2ncnc3nc[nH]c23)c1 | inconclusive: 0.562 µM [activator, full curve, poor fit] |
| Cc1ccc(-c2n[nH]c3c2C(c2ccc(C(C)(C)C)cc2)NC3=O)cc1 (stereo not drawn) | inactive |
| O=C(CNS(=O)(=O)c1ccc(Cl)cc1)N/N=C/c1ccco1 | inconclusive: 35.5 µM [inhibitor, single point] |
| CCN(c1cccc(C)c1)S(=O)(=O)c1ccc2c(c1)CCN2C(C)=O | inconclusive: 35.5 µM [inhibitor, single point] |
| Cc1cc(C(=O)CSc2nnc(N)s2)c(C)n1Cc1cccs1 | active: 1.58 µM |
| COc1ccc(C(=O)N[C@H](C(=O)NCc2ccccc2)C(C)C)cc1 | inconclusive: 3.98 µM [inhibitor, single point] |
| CC1CN(CCCCOc2ccc3ccccc3c2)CC(C)O1 (stereo not drawn) | inconclusive: 35.5 µM [inhibitor, single point] |
| Cc1cc(N2CCOCC2)nc2ccc(NC(=S)NCCN(C)C)cc12 | inconclusive: 28.2 µM [inhibitor, single point] |
| CCOC(=O)COc1ccc(CC)cc1C(=O)c1ccn2nc(-c3ccccc3)cc2n1 | inconclusive: 15.8 µM [inhibitor, single point] |
| O=[N+]([O-])c1ccc(NN=Cc2cccc(O)c2)nc1 | inconclusive: 17.8 µM [inhibitor, partial curve, poor fit] |
| CC1CCCN(C(=O)COC(=O)c2n[nH]c3ccccc23)C1 (stereo not drawn) | inconclusive: 7.08 µM [activator, partial curve, poor fit] |
| COc1ccccc1C1CCN(Cc2ccc(Cl)c(Cl)c2)CC1 | inconclusive: 17.8 µM [inhibitor, single point] |
| CCOC(=O)C1(N(CC)CC)Sc2cc(C)ccc2NC1=O (stereo not drawn) | inconclusive: 11.2 µM [inhibitor, partial curve, poor fit] |
| COc1ccc(NC(=O)CN(C)C(=O)c2ccc3ccccc3n2)cc1 | inactive |
| COc1cccc(CNC(=O)c2sc3nc(C)cc(C)c3c2-n2cccc2)c1OC | inconclusive: 1.12 µM [inhibitor, partial curve, poor fit] |
| CCc1ccc(-c2cc3c(=O)n(CC(=O)N4CCCC4)nc(C)n3n2)cc1 | inactive |
